A short description of the test: qHTS Assay for Lipid Storage Modulators in Drosophila S3 Cells.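 On cell number change: cells counted by Cell Tracker Red CMTPX staining in the red channel.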 The note with it: BODIPY lipid droplet fluorescence, 18-24 h; for cell number change: measured here: cell count max response, cells fed with added oleic acid. The procedure, abridged: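 Drosophila S3 cells loaded with oleic acid (400 uM, as added) and compounds at several concentrations; lipid droplets imaged by 488-nm laser-scanning cytometry, 500–530 nm intensity and object ratio to cell channel. Percent activity normalized to 20 uM Triacsin C.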
A general note: Quantitative high-throughput screening tests each substance at several concentrations.

[1] abbreviates: measured here: lipid fluorescence (Fed channel) AC50, cells fed with added oleic acid.
The mark [2] stands for this setting: measured here: cell number channel AC50, cells fed with added oleic acid.

This note sets out measurements from PubChem BioAssay AID2685 (National Center for Advancing Translational Sciences (NCATS), 2010).

Structures are written as SMILES. This is one part of the list. The main result of the screen is listed elsewhere. These columns were measured beside it and carry no call. The list favours compounds with an active or inconclusive main result. The note in brackets gives the kind of curve behind each potency; many fits are weak.

Regarding `CN(C1CCCCC1)S(=O)(=O)c1cccc(C(=O)Nc2ccccn2)c1`, the cell number change is -2.04%. For the same molecule, the AC50 (in general, the midpoint of the concentration-response curve, whichever way the signal moves) under setting [1] was 2.06 µM [falling, partial curve]. Turning to `CC(C)=CC(=O)OCc1csc(CC(=O)Nc2ccccc2C)n1`, the cell number change was determined as 29%. Under setting [2], the AC50 was 4.11 µM [rising, full curve, poor fit]. Under setting [1], the AC50 is 0.0731 µM [rising, full curve, poor fit].

Consider `O=C(Nc1ncn[nH]1)c1cc([N+](=O)[O-])ccc1Cl`, for which the cell number change stood at 2.55%. `CCOc1ccc(Nc2nc(N3CCOCC3)nc(N3CCOCC3)n2)cc1`: the AC50 under setting [1] is 6.51 µM [rising, full curve].

`CCOc1cc(Cl)c(S(=O)(=O)NCCCN2CCOCC2)cc1Cl`: the cell number change stood at 6.52%. Also, under setting [1], the concentration at half-maximal activity (AC50) is 29.1 µM [rising, single point]. Take `NS(=O)(=O)c1ccc(CCNC(=O)Cc2ccccc2[N+](=O)[O-])cc1`: the AC50 under setting [2] was 0.146 µM [falling, full curve, poor fit]. On to `OCC[C@@H]1C[C@H](O)[C@@H](O)[C@]2(Cc3ccccc3CCO2)O1`, for which the cell number change came to 21.3%. Also, the AC50 under setting [1] was 11.6 µM [rising, partial curve]. For `CCC(C)Sc1nnc(-c2c[nH]c3ccccc23)n1CCOC` (stereo not given), the cell number change was -13.9%. The AC50 under setting [1] was 8.2 µM [falling, partial curve]. Regarding `COc1ccc(C2CC(c3ccccc3)Nc3nc(NS(C)(=O)=O)nn32)cc1` (stereo not given), the cell number change was -21.5%. Moreover, the AC50 under setting [1] was 23.1 µM [falling, single point]. In the case of `CCOC(=O)COn1c(=O)c(-c2ccc(OCC)cc2)[n+]([O-])c2ccccc21`, the cell number change came out at 20.2%. Further, the concentration at half-maximal activity (AC50) under setting [1] is 5.17 µM [rising, partial curve]. As for `Cc1ccc(C(=O)/C=C/Nc2ccccc2C(N)=O)o1`, the cell number change worked out at 102%. Moreover, the AC50 under setting [2] is 29.1 µM [rising, single point]. Also, the AC50 under setting [1] is 20.6 µM [rising, partial curve]. For `Cc1ccc(C(=O)n2c(-c3ccccc3)cnc2SCC(=O)Nc2ccc(C)cc2C)cc1`, the concentration at half-maximal activity (AC50) under setting [1] is 1.84 µM [rising, single point]. Turning to `CC(C)Oc1ccccc1/C=N/NC(=O)c1ccc(F)cc1`, the cell number change amounted to 35.4%. Further, under setting [2], the AC50 was 6.51 µM [rising, single point]. Further, the AC50 under setting [1] was 11.6 µM [rising, single point]. For `O=C(Nc1ccc(F)c(F)c1)c1ccccc1`, the cell number change came out at 14.5%. For the same molecule, the AC50 under setting [1] was 25.9 µM [falling, single point]. For `O=C(Nc1nc(-c2cccs2)c(C(=O)C(F)(F)F)s1)c1ccco1`, the cell number change was -17.8%. Moreover, the AC50 under setting [2] was 0.651 µM [falling, single point]. Further, under setting [1], the AC50 was 0.731 µM [falling, full curve]. Consider `COc1ccc(CCNC(=O)CSc2n[nH]c(N)n2)cc1`, for which the cell number change was determined as 7.89%. As for `O=Cc1c(Cl)nc2ccccn2c1=O`, the cell number change was 18.4%. For the same molecule, the AC50 under setting [2] is 6.51 µM [rising, single point]. The AC50 under setting [1] was 29.1 µM [rising, single point]. On to `COc1ccccc1NC(=O)CCC(=O)Nc1nnc(C2CCCCC2)s1`, for which the cell number change is -14.7%. With `COc1ccc(NC(=O)CCCc2ccccc2)c(OC)c1`, the cell number change was determined as 26.7%. Besides, the AC50 under setting [1] was 29.1 µM [rising, single point]. As to `O=C(CCSCc1ccc(Cl)cc1)NCCC1=CCCCC1`, the cell number change turned out to be 15.1%. Consider `COc1cc(C2C(C#N)=C(N)OC3=C2C(=O)CC(C)(C)C3)c([N+](=O)[O-])cc1OC` (stereo not given), for which, under setting [1], the AC50 was 29.1 µM [falling, single point]. In the case of `NS(=O)(=O)c1ccc(CCNS(=O)(=O)c2cccs2)cc1`, the cell number change was found to be 31.6%. Moreover, the AC50 under setting [2] is 0.184 µM [rising, full curve, poor fit]. Also, under setting [1], the AC50 is 0.82 µM [rising, full curve, poor fit].

Turning to `Cc1nc2sc3c(c2c(=O)n1/N=C/c1cccnc1)CCCC3`, the cell number change is -31.4%. In addition, the AC50 under setting [2] was 32.6 µM [falling, single point]. For the same molecule, the AC50 under setting [1] is 29.1 µM [falling, single point].

On to `CC(C)C(=O)Nc1ccc(NC(=O)c2ccc(COc3ccccc3)cc2)cc1`, for which the cell number change stood at 15%. Under setting [1], the AC50 was 16.4 µM [rising, partial curve].

`O=C(Cc1ccccc1Cl)Nc1nc2ccccc2[nH]1`: the cell number change is -18.3%. In addition, under setting [1], the AC50 is 0.00461 µM [falling, full curve, poor fit]. As to `COc1cc(C2NC(=O)NC(C)=C2C(=O)OCC2CCCCC2)cc(Cl)c1O` (stereo not given), the cell number change is -13.9%. Besides, the AC50 under setting [1] was 0.731 µM [falling, full curve]. Turning to `CCC(=O)NC(Nc1sc2c(c1C(=O)OC)CCCC2)(C(F)(F)F)C(F)(F)F`, the cell number change was -29.7%. Further, under setting [1], the AC50 is 29.1 µM [falling, single point]. `CCOC(=O)c1oc2cc(O)ccc2c(=O)c1-c1csc(C)n1`: the cell number change is -8.38%. Moreover, the AC50 under setting [2] was 3.26 µM [falling, single point]. For `Cc1ccc2c(c1)C(=O)OC1(O)C3C4C=CC(C4)C3C(=O)N21` (stereo not given), the cell number change came to 6.45%.

On to `Cc1occc1C(=O)NCCCCNC(=O)c1ccoc1C`, for which the cell number change worked out at 18.5%.

Take `CC1(c2ccccc2)NC(=O)N(N)C1=O` (stereo not given): the cell number change is -15.2%. Moreover, under setting [2], the AC50 is 6.51 µM [rising, partial curve, poor fit]. Take `O=C(COc1ccc2ccccc2c1)NNC(=O)Cc1cccc2ccccc12`: the cell number change was -10.7%. Further, under setting [2], the AC50 was 0.00461 µM [falling, full curve, poor fit]. Under setting [1], the AC50 is 2.91 µM [rising, single point]. As to `O=C(C#Cc1cccc([N+](=O)[O-])c1)c1ccccc1`, the cell number change is -32.3%. The AC50 under setting [2] is 0.13 µM [falling, full curve, poor fit]. Also, under setting [1], the AC50 was 0.58 µM [falling, single point]. With `O=c1[nH]c2cc3c(cc2cc1CN(Cc1nnnn1CC1CCCO1)C1CCCCC1)OCO3` (stereo not given), the cell number change was 24.6%. Consider `O=C(/C=C/c1c(Cl)nc2ccccn12)N1CCN(c2ccc(F)cc2)CC1`, for which the AC50 under setting [1] is 0.116 µM [rising, partial curve, poor fit]. Consider `CC(=O)Nc1ccc(S(=O)(=O)Oc2ccc(C(=S)N3CCCCC3)cc2)cc1`, for which the AC50 under setting [1] is 0.00517 µM [falling, full curve, poor fit]. `Cc1cccc(CC(=O)Nc2cc(C)c3c(=O)oc4ccccc4c3n2)c1`: under setting [1], the AC50 is 0.58 µM [rising, single point]. Take `CCc1cc2cccc(C)c2nc1SCC(=O)c1ccc(NC(C)=O)cc1`: the cell number change came to 15.2%. Further, the AC50 under setting [1] is 0.231 µM [rising, full curve]. For the molecule `COc1ccc(C2CCCN2C(=S)Nc2ccc(C)cc2Cl)cc1OC` (stereo not given), the cell number change came to 35.8%. The AC50 under setting [2] is 16.4 µM [rising, single point]. Further, the half-maximal activity concentration (AC50) under setting [1] was 32.6 µM [rising, single point]. Regarding `CN(C)c1ccc(/C=C/C(=O)c2ccc(C(C)(C)C)cc2)cc1[N+](=O)[O-]`, the cell number change is -60.5%. Further, the AC50 under setting [2] is 18.4 µM [falling, single point]. In the case of `Cc1cc(C)c(OCC(=O)OCC(=O)N2CCCc3ccccc32)c(C)c1`, the AC50 was 6.51 µM [falling, single point] under setting [2] and 10.3 µM [rising, partial curve] under setting [1]. For the molecule `CC(C)NC(=O)COC(=O)c1ccc(Cl)c(S(=O)(=O)N2CCCC2)c1`, the cell number change was -51.7%. Further, the AC50 under setting [2] was 2.59 µM [falling, partial curve, poor fit]. Moreover, the concentration at half-maximal activity (AC50) under setting [1] was 25.9 µM [falling, partial curve].

For `C=CCn1c(SCC(=O)Nc2ccc3c(c2)CCC3)nc2ccccc2c1=O`, the cell number change is -8.87%. Under setting [1], the AC50 was 23.1 µM [falling, single point]. For the molecule `CC(=O)Nc1ccc2c(c1)ncn2-c1ccc(C)cc1`, the cell number change is -10.9%. Moreover, the concentration at half-maximal activity (AC50) under setting [2] is 6.51 µM [falling, single point]. In addition, the AC50 under setting [1] is 6.51 µM [falling, single point]. In the case of `Cc1ccc(S(=O)(=O)N2CCOCC2)cc1C(=O)Nc1ccccc1F`, the cell number change is 2.76%. Moreover, under setting [1], the half-maximal activity concentration (AC50) is 29.1 µM [rising, single point]. Consider `COc1ccc(Cl)cc1NC(=O)CN(C)C(=O)c1ccc(N2CCCCCC2)c([N+](=O)[O-])c1`, for which the cell number change is -30.1%. Besides, the AC50 under setting [2] was 2.06 µM [falling, full curve, poor fit]. Turning to `COCCNc1nc2c(c(=O)n(C)c(=O)n2C)n1Cc1cccc(C(F)(F)F)c1`, the cell number change is -112%. Also, the AC50 under setting [2] is 6.51 µM [rising, single point]. The AC50 under setting [1] was 29.1 µM [falling, single point].

For the molecule `CCOC(=O)c1c(C)oc2c1c(CN1CCN(CCO)CC1)c(O)c1ccccc12`, the cell number change is -34.7%. In addition, under setting [2], the concentration at half-maximal activity (AC50) is 18.4 µM [falling, single point]. For the same molecule, the AC50 under setting [1] was 18.4 µM [falling, single point].

For `CN(C)CCCNc1cn[nH]c(=O)c1Cl`, the cell number change was -23%. In addition, the AC50 under setting [2] was 0.651 µM [falling, full curve, poor fit]. Besides, the AC50 under setting [1] is 18.4 µM [falling, partial curve]. Turning to `Cc1ccc(CCN2C(=O)CCC2(C)C(=O)NCc2cccnc2)cc1` (stereo not given), the cell number change was found to be 1.19%. Besides, under setting [1], the AC50 is 0.651 µM [falling, partial curve, poor fit]. For the molecule `CCOC(=O)N1CCC(N2C(=O)c3ccccc3C2Nc2cc(C(=O)OC)cc(C(=O)OC)c2)CC1` (stereo not given), the cell number change amounted to 4.24%. On to `Cc1nc2scc(C)n2c(=O)c1S(=O)(=O)N1CCN(c2ccc([N+](=O)[O-])cc2)CC1`, for which the cell number change was found to be 15.8%. `CCOCC(=O)Nc1ccccc1C(=O)O`: the cell number change was -18.3%. Moreover, under setting [1], the AC50 was 32.6 µM [falling, single point]. With `CC(=O)C1=C(O)C(=O)N(c2nccs2)C1c1ccccc1` (stereo not given), the AC50 under setting [1] is 0.366 µM [falling, full curve].

Take `CC(=O)c1ccc(OC(=O)CN2C(=O)c3ccccc3C2=O)cc1`: the cell number change was 13.1%. For the same molecule, under setting [1], the AC50 is 0.116 µM [rising, full curve, poor fit]. With `CCCCc1ccc(/C=C(\C#N)C(N)=S)s1`, the cell number change was -30.8%. The AC50 under setting [2] is 20.6 µM [falling, single point]. For the same molecule, the AC50 under setting [1] is 14.6 µM [falling, partial curve, poor fit]. Turning to `COCCn1c(=N)c(S(=O)(=O)c2ccc(F)cc2)cc2c(=O)n3cccc(C)c3nc21`, the cell number change is -16.7%. Besides, the AC50 under setting [2] was 5.17 µM [falling, partial curve]. Take `N#Cc1ccccc1NC(=O)C(=O)NCCc1csc(-c2ccc(F)cc2)n1`: the cell number change was -31.3%. Further, the AC50 under setting [2] was 8.2 µM [falling, partial curve].
